# Some of the results follow.
# B1: Epa19 (Candida glabrata) (protein)
# chain: MGSSHHHHHHSSGLVPRGSHMASSKDPTRFPIGCSPQVLKTQPGLAVKLYSYGHPVPGCSYITYQYPDFPRSGYKKERKLADITGVNGKIDIDLKPNDPCRVLTGHLPSNYNYPDTLTYTNFTMILYGYFQPKVTGYHTFNLEADDLLFMNLGAGNAFDCCKAESTLDNFGNYQSYSLWGSDYAKANITVFLVSGVYYPIRLFYVNRDNNAVIDFSFTTEFDKEKVHDFTSYFFSASDGEQCPGSV
# What was measured:
# Assay in all cases: glycan array binding signal (z-score within array); higher = stronger binding
# Conditions in all cases: glycan notation: IUPAC condensed, linker removed
# [1] = target: Gal(b1-3)GlcNAc(b1-3)Gal(b1-4)GlcNAc(b1-2)Man(a1-3)[Gal(b1-3)GlcNAc(b1-3)Gal(b1-4)GlcNAc(b1-2)Man(a1-6)]Man(b1-4)GlcNAc(b1-4)GlcNAc
# Method in brief: (§1)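 Glycan array data were curated from 3228 arrays in the Consortium for Functional Glycomics database and kept only where the protein sequence was available. Glycan names were converted to IUPAC-condensed notation, and columns mapping to the same glycan were averaged. The binding signal is a within-array Z-score, averaged across arrays of the same protein sequence at different concentrations or buffers and across linkers. Negative Z-scores can be read as non-binding.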
# [2] = target: Gal(b1-3)GlcNAc(b1-3)Gal(b1-4)GlcNAc(b1-2)[Gal(b1-3)GlcNAc(b1-3)Gal(b1-4)GlcNAc(b1-6)]Man(a1-6)[Gal(b1-3)GlcNAc(b1-3)Gal(b1-4)GlcNAc(b1-2)Man(a1-3)]Man(b1-4)GlcNAc(b1-4)[Fuc(a1-6)]GlcNAc
# Method in brief: as §1
# [3] = target: Gal(b1-3)GlcNAc(b1-3)Gal(b1-4)GlcNAc(b1-3)Gal(b1-4)GlcNAc(b1-2)[Gal(b1-3)GlcNAc(b1-3)Gal(b1-4)GlcNAc(b1-3)Gal(b1-4)GlcNAc(b1-6)]Man(a1-6)[Gal(b1-3)GlcNAc(b1-3)Gal(b1-4)GlcNAc(b1-3)Gal(b1-4)GlcNAc(b1-2)Man(a1-3)]Man(b1-4)GlcNAc(b1-4)[Fuc(a1-6)]GlcNAc
# Method in brief: as §1
# [4] = target: Gal(b1-3)GlcNAc(b1-3)Gal(b1-4)GlcNAc(b1-6)[Gal(b1-3)GlcNAc(b1-3)]Gal(b1-4)Glc
# Method in brief: as §1
# [5] = target: Gal(b1-3)GlcNAc(b1-3)Gal(b1-4)[Fuc(a1-3)]GlcNAc
# Method in brief: as §1
# [6] = target: Gal(b1-3)GlcNAc(b1-3)Gal(b1-4)[Fuc(a1-3)]GlcNAc(b1-6)[Gal(b1-3)GlcNAc(b1-3)]Gal(b1-4)Glc
# Method in brief: as §1
# [7] = target: Gal(b1-3)GlcNAc(b1-3)GalNAc
# Method in brief: as §1
# [8] = target: Gal(b1-3)GlcNAc(b1-6)Gal(b1-4)GlcNAc
# Method in brief: as §1
# [9] = target: Gal(b1-3)GlcNAc(b1-6)GalNAc
# Method in brief: as §1
# [10] = target: Gal(b1-3)GlcNAc(b1-6)[Gal(b1-3)]GalNAc
# Method in brief: as §1
# Gal(b1-3)GlcNAc6S = target: Gal(b1-3)GlcNAc6S
# Method in brief: as §1
# [11] = target: Gal(b1-3)[Fuc(a1-4)]GlcNAc
# Method in brief: as §1
# [12] = target: Gal(b1-3)[Fuc(a1-4)]GlcNAc(b1-2)Man
# Method in brief: as §1
# [13] = target: Gal(b1-3)[Fuc(a1-4)]GlcNAc(b1-2)Man(a1-3)[Gal(b1-3)[Fuc(a1-4)]GlcNAc(b1-2)Man(a1-6)]Man(b1-4)GlcNAc(b1-4)[Fuc(a1-6)]GlcNAc
# Method in brief: as §1
# [14] = target: Gal(b1-3)[Fuc(a1-4)]GlcNAc(b1-3)Gal(b1-3)[Fuc(a1-4)]GlcNAc
# Method in brief: as §1
# [15] = target: Gal(b1-3)[Fuc(a1-4)]GlcNAc(b1-3)Gal(b1-4)[Fuc(a1-3)]GlcNAc
# Method in brief: as §1
# [16] = target: Gal(b1-3)[Fuc(a1-4)]GlcNAc(b1-6)GalNAc
# Method in brief: as §1
# [17] = target: Gal(b1-3)[GlcNAc(b1-6)]GalNAc
# Method in brief: as §1
# [18] = target: Gal(b1-3)[Neu5Ac(a2-6)]GalNAc
# Method in brief: as §1
# [19] = target: Gal(b1-3)[Neu5Ac(a2-6)]GlcNAc(b1-4)Gal(b1-4)Glc
# Method in brief: as §1
# [20] = target: Gal(b1-3)[Neu5Ac(b2-6)]GalNAc
# Method in brief: as §1
# Gal(b1-4)Gal = target: Gal(b1-4)Gal
# Method in brief: as §1
# [21] = target: Gal(b1-4)GalNAc(a1-3)[Fuc(a1-2)]Gal(b1-4)GlcNAc
# Method in brief: as §1
# [22] = target: Gal(b1-4)GalNAc(b1-3)[Fuc(a1-2)]Gal(b1-4)GlcNAc
# Method in brief: as §1
# Gal(b1-4)Glc = target: Gal(b1-4)Glc
# Method in brief: as §1
# Gal(b1-4)Glc6S = target: Gal(b1-4)Glc6S
# Method in brief: as §1
# Gal(b1-4)GlcNAc = target: Gal(b1-4)GlcNAc
# Method in brief: as §1
# [23] = target: Gal(b1-4)GlcNAc(a1-6)Gal(b1-4)GlcNAc
# Method in brief: as §1
# Gal(b1-4)GlcNAc(b1-2)Man = target: Gal(b1-4)GlcNAc(b1-2)Man
# Method in brief: as §1
# [24] = target: Gal(b1-4)GlcNAc(b1-2)Man(a1-3)Man(b1-4)GlcNAc(b1-4)GlcNAc
# Method in brief: as §1
# [25] = target: Gal(b1-4)GlcNAc(b1-2)Man(a1-3)[Gal(b1-4)GlcNAc(b1-2)Man(a1-6)]Man(b1-4)GlcNAc(b1-4)GlcNAc
# Method in brief: as §1
# [26] = target: Gal(b1-4)GlcNAc(b1-2)Man(a1-3)[Gal(b1-4)GlcNAc(b1-2)Man(a1-6)]Man(b1-4)GlcNAc(b1-4)[Fuc(a1-6)]GlcNAc
# Method in brief: as §1
# [27] = target: Gal(b1-4)GlcNAc(b1-2)Man(a1-3)[Gal(b1-4)GlcNAc(b1-2)Man(a1-6)][Gal(b1-4)GlcNAc(b1-4)]Man(b1-4)GlcNAc(b1-4)[Fuc(a1-6)]GlcNAc
# Method in brief: as §1
# [28] = target: Gal(b1-4)GlcNAc(b1-2)Man(a1-3)[Gal(b1-4)GlcNAc(b1-2)Man(a1-6)][GlcNAc(b1-4)]Man(b1-4)GlcNAc(b1-4)[Fuc(a1-6)]GlcNAc
# Method in brief: as §1
# [29] = target: Gal(b1-4)GlcNAc(b1-2)Man(a1-3)[GlcNAc(b1-2)Man(a1-6)]Man(b1-4)GlcNAc(b1-4)GlcNAc
# Method in brief: as §1
# [30] = target: Gal(b1-4)GlcNAc(b1-2)Man(a1-3)[GlcNAc(b1-4)][Gal(b1-4)GlcNAc(b1-2)Man(a1-6)]Man(b1-4)GlcNAc(b1-4)GlcNAc
# Method in brief: as §1
# [31] = target: Gal(b1-4)GlcNAc(b1-2)Man(a1-3)[Man(a1-6)]Man(b1-4)GlcNAc(b1-4)GlcNAc
# Method in brief: as §1
# [32] = target: Gal(b1-4)GlcNAc(b1-2)Man(a1-6)Man(b1-4)GlcNAc(b1-4)GlcNAc
# Method in brief: as §1
binder,measurement,setting,value
B1,glycan array binding signal (z-score),[1],0.847
same,glycan array binding signal (z-score),[2],0.881
same,glycan array binding signal (z-score),[3],0.249
same,glycan array binding signal (z-score),[4],0.06
same,glycan array binding signal (z-score),[5],0.997
same,glycan array binding signal (z-score),[6],-0.418
same,glycan array binding signal (z-score),[7],-0.204
same,glycan array binding signal (z-score),[8],-0.034
same,glycan array binding signal (z-score),[9],0.208
same,glycan array binding signal (z-score),[10],-0.211
same,glycan array binding signal (z-score),Gal(b1-3)GlcNAc6S,0.058
same,glycan array binding signal (z-score),[11],-0.613
same,glycan array binding signal (z-score),[12],0.424
same,glycan array binding signal (z-score),[13],-0.356
same,glycan array binding signal (z-score),[14],-0.659
same,glycan array binding signal (z-score),[15],-0.553
same,glycan array binding signal (z-score),[16],1.69
same,glycan array binding signal (z-score),[17],-0.054
same,glycan array binding signal (z-score),[18],-0.344
same,glycan array binding signal (z-score),[19],-0.363
same,glycan array binding signal (z-score),[20],2.39
same,glycan array binding signal (z-score),Gal(b1-4)Gal,0.068
same,glycan array binding signal (z-score),[21],-0.193
same,glycan array binding signal (z-score),[22],-0.369
same,glycan array binding signal (z-score),Gal(b1-4)Glc,-0.382
same,glycan array binding signal (z-score),Gal(b1-4)Glc6S,2.4
same,glycan array binding signal (z-score),Gal(b1-4)GlcNAc,-0.455
same,glycan array binding signal (z-score),[23],-0.393
same,glycan array binding signal (z-score),Gal(b1-4)GlcNAc(b1-2)Man,0.972
same,glycan array binding signal (z-score),[24],-0.144
same,glycan array binding signal (z-score),[25],-0.163
same,glycan array binding signal (z-score),[26],-0.163
same,glycan array binding signal (z-score),[27],-1.35
same,glycan array binding signal (z-score),[28],-0.603
same,glycan array binding signal (z-score),[29],-0.505
same,glycan array binding signal (z-score),[30],-0.894
same,glycan array binding signal (z-score),[31],-0.49
same,glycan array binding signal (z-score),[32],-0.44

# Taken from the entries so far (3 entries):
binder,measurement,setting,value
B1,glycan array binding signal (z-score),[14],-0.659
same,glycan array binding signal (z-score),[15],-0.553
same,glycan array binding signal (z-score),[16],1.69

# Source: the supplement of paper PMC8728848
